Data as given in PubChem BioAssay AID1508588 (Peter MacCallum Cancer Centre, 2020)

- Aim: 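Which gene losses make BRAF-mutant melanoma cells more responsive to vemurafenib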 (primary screen)
- Cell system: human WM266.4 melanoma cells (BRAF V600 mutant)
- Reagents: siRNA pool against human genes, 40 nM
- Time to read-out: 96 h from transfection to read-out
- Challenge: vemurafenib 300 nM (about IC25), added 48 h after transfection, for 48 h; comparison arm got DMSO vehicle only
- Detection: 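Ratios to non-targeting siRNA for cell gain, counted as DAPI nuclei after minus before drug and averaged over two replicates, and for absorbance-read medium lactate per cell; both binned into fold-change classes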
- Reading the numbers: cell gain with vemurafenib: higher = more cell gain than with non-targeting siRNA; lactate per cell with vemurafenib: higher = more lactate made per cell
- Active means: 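a knock-down counts as enhancing when its fold-change classes with vehicle and with vemurafenib, taken together, show a stronger drug effect on cell gain or lactate per cell; exact class pairs not stated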
- Meaning of the calls: active = enhances vemurafenib effect; inactive = no enhancement seen
The whole screen tested about 18,000 reagents; this is an unselected part. 790 of them (4.4%) count as active. 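Calls rest on a combination of fold-change classes in drug and vehicle arms, not all shown here.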

gene knocked down | PubChem SID | cell gain with vemurafenib | lactate per cell with vemurafenib | call
SPDYC | SID135624851 | 1.07 | 0.74 | inactive
MKNK2 | SID152150791 | 0.56 | 0.8 | inactive
SETDB1 | SID134323811 | 0.52 | 1.07 | inactive
FAM53C | SID134324857 | 0.45 | 0.52 | inactive
KCNN4 | SID135620834 | 0.87 | 1.07 | inactive
GRK5 | SID152146923 | 0.21 | 1.04 | inactive
A2ML1 | SID152149048 | 0.87 | 0.94 | inactive
ZNF559 | SID134318990 | 0.6 | 1.09 | inactive
NCAPG | SID152149654 | 0.82 | 0.81 | inactive
PLA2G4C | SID152151512 | 0.68 | 0.93 | inactive
RGS20 | SID135621570 | 0.37 | 0.85 | inactive
ZCCHC10 | SID134324291 | 0.48 | 0.68 | inactive
SRP72 | SID135623816 | 0.32 | 1.62 | inactive
OR10Z1 | SID152155111 | 0.41 | 1.23 | inactive
PODXL2 | SID152149727 | 0.25 | 1.33 | inactive
COMT | SID152155934 | 0.15 | 1.96 | inactive
VSIG2 | SID134320614 | 0.55 | 1.31 | inactive
DNAJB5 | SID135623156 | 0.86 | 0.6 | inactive
OR56B1 | SID152151283 | 0.74 | 0.86 | inactive
MBLAC2 | SID134329419 | 0.2 | 1.31 | inactive
PROC | SID152148685 | 0.13 | 0.85 | inactive
SCAI | SID135623445 | 0.96 | 0.71 | inactive
CYREN | SID134314815 | 0.61 | 1 | inactive
INO80E | SID134310211 | 0.95 | 0.26 | inactive
TRIM29 | SID152154560 | 0.67 | 1.33 | inactive
HHIPL2 | SID135623173 | 1.26 | 0.68 | inactive
FKBP8 | SID152149049 | 0.55 | 0.8 | inactive
ARPC3 | SID134310853 | 0.94 | 0.79 | inactive
CFC1B | SID135625535 | 0.69 | 1.9 | inactive
NOL11 | SID152154211 | 0.19 | 1.57 | inactive
CRLS1 | SID134321811 | 0.53 | 1.34 | inactive
C10orf55 | SID134329793 | 0.35 | 0.92 | inactive
PSMA7 | SID134310318 | -0.11 | 1.86 | inactive
KRTAP10-7 | SID135624997 | 0.5 | 0.85 | inactive
PLD6 | SID134321766 | 0.44 | 0.06 | inactive
ACTR1B | SID134316372 | 1.15 | 1.16 | inactive
POGLUT1 | SID134320144 | 0.15 | 1.86 | inactive
C12orf43 | SID134318403 | 0.52 | 0.82 | inactive
GRIA2 | SID152146942 | 0.56 | 1.6 | inactive
DBH | SID152156500 | 0.94 | 0.68 | inactive
SLC12A4 | SID152156117 | 0.88 | 0.46 | inactive
PHEX | SID152155687 | 0.41 | 0.3 | active
OR4F5 | SID134329927 | 0.93 | 0.66 | inactive
DCBLD2 | SID152153712 | 0.84 | 1.12 | inactive
OR5P3 | SID134313897 | 0.65 | 0.64 | inactive
TOX3 | SID152156261 | 0.5 | 1.58 | inactive
ADD2 | SID135621768 | 0.58 | 1.66 | inactive
MYL1 | SID152156662 | 0.25 | 1.45 | inactive
CYFIP2 | SID152155224 | 0.62 | 0.98 | inactive
CLBA1 | SID152151610 | 0.85 | 1.36 | inactive
LIF | SID134316041 | 0.06 | 1.11 | inactive
TRIM67 | SID152155154 | 1.08 | 0.82 | inactive
AVEN | SID152156525 | 0.54 | 1.27 | inactive
SPAG16 | SID135623235 | 1.25 | 0.69 | inactive
ATP6V1E1 | SID152152808 | 0.74 | 0.66 | inactive
RHCG | SID134324565 | 0.99 | 1.27 | inactive
NEIL2 | SID134320342 | 0.48 | 0.94 | inactive
AUP1 | SID152155937 | 0.49 | 1.21 | inactive
ZBTB47 | SID134320519 | 0.23 | 1.1 | inactive
APBB2 | SID152147616 | 0.12 | 0.46 | active
ATP6V1D | SID152155924 | 0.74 | 0.36 | inactive
CPLANE1 | SID135622704 | 0.17 | 0.38 | active
UBE2U | SID134313837 | 0.86 | 0.9 | inactive
SPSB2 | SID135622851 | 0.62 | 1.5 | inactive
LPAR2 | SID135620848 | 0.57 | 0.72 | inactive
SMIM14 | SID134321735 | -0.05 | 0.78 | inactive
DYRK2 | SID152156553 | 0.53 | 1.19 | inactive
BMF | SID135620820 | 1.1 | 0.94 | inactive
KLK10 | SID152152833 | 0.71 | 1.15 | inactive
DSCR4 | SID135622253 | 0.73 | 0.72 | inactive
PTGDS | SID134314422 | 0.51 | 2 | inactive
MSTO1 | SID134324775 | 1.1 | 0.66 | inactive
CRY2 | SID152150613 | 0.75 | 0.84 | inactive
NXPE1 | SID134319999 | 0.08 | 2.38 | inactive
GATA5 | SID135621921 | 0.59 | 1.45 | inactive
RPF1 | SID152156094 | 0.32 | 0.75 | inactive
IL4 | SID134312923 | 0.78 | 1.22 | inactive
PLAAT2 | SID134324494 | 0.57 | 0.81 | inactive
COX14 | SID134319105 | 0.36 | 0.86 | inactive
FASTKD2 | SID134324130 | 0.35 | 1.68 | inactive
SDCCAG8 | SID135622387 | 0.18 | 0.14 | active
DKKL1 | SID135624003 | 0.67 | 1.4 | inactive
ADORA3 | SID134310876 | 0.64 | 1.33 | inactive
FCHO1 | SID134318292 | 0.92 | 0.86 | inactive
WDR70 | SID152149063 | 0.72 | 0.72 | inactive
CHTOP | SID134321600 | 0.46 | 1.09 | inactive
OR13C9 | SID152153355 | 0.35 | 0.74 | inactive
LAMA4 | SID135622183 | 0.53 | 0.58 | inactive
CIAO2A | SID135622889 | 0.84 | 1.14 | inactive
KANSL3 | SID135623239 | 0.63 | 0.94 | inactive
TMEM79 | SID134318942 | 0.78 | 0.78 | inactive
NPAT | SID135623783 | 0.52 | 1.75 | inactive
PPIG | SID134313173 | 0.15 | 2.67 | inactive
ARHGAP31 | SID152147589 | 0.68 | 1.31 | inactive
SNX18 | SID135622526 | 0.13 | 1.31 | inactive
RP1 | SID134316552 | 0.45 | 1.72 | inactive
RTN2 | SID134316977 | 0.91 | 0.8 | inactive
GPKOW | SID134319182 | 0.72 | 0.73 | inactive
NRM | SID152149927 | 1.02 | 0.72 | inactive
NFATC2IP | SID135623562 | 0.83 | 1.11 | inactive
KLB | SID134321847 | 0.6 | 1.2 | inactive
CCNK | SID152155051 | -0.04 | 3.66 | inactive
CYC1 | SID152155804 | 0.68 | 1.68 | inactive
LARP4B | SID152149163 | 0.57 | 0.47 | inactive
BORCS5 | SID134322076 | 0.59 | 0.64 | inactive
TUBA1C | SID152156620 | -0.07 | 1.6 | inactive
LCE3E | SID135623661 | 0.4 | 2.1 | inactive
